Measurements: patent US20240424005A1, “DIAGNOSING, MONITORING AND TREATING NEUROLOGICAL DISEASE WITH PS[…] DERIVATIVES AND mRNA MEASUREMENTS” (NOVA MENTIS LIFE SCIENCE CORP., priority 2021, published 2024)
Entries after “also recorded” stand apart in the source; their conditions may differ. At least one structure is not confirmed: it was looked up by name or label, or the drawing left a doubt.

How the values were obtained:
serum cytokine levels = test: Serum cytokine levels (cytokine flow cytometry) in Fmr1 KO and WT rats treated with psilocybin; assay type: in vivo, rat
Fmr1-^Δexon 8 rats = test: Novel object recognition task in Fmr1-Δexon 8 rats (model of FXS/ASD); assay type: in vivo, rat; conditions: for cognitive deficit (% discrimination index): Fmr1-Δexon 8 rats
Wistar rats = conditions: Hibicke et al., 2020; cited from earlier work
VPA-exposed rats = test: Elevated plus-maze test in rats prenatally exposed to valproic acid; assay type: in vivo, rat; conditions: 1 mg/kg i.p. on PND 34, 1 day before testing
Protocol: Female Wistar rats (Charles River), weighing 250±15 g, were mated overnight. The morning when spermatozoa were found was designated as gestational day 1 (GD1). Pregnant rats were singly housed in Macrolon cages (401×26w x 20h cm), under controlled conditions (temperature 20-21° C., 55-65% relative humidity and 12/12h light cycle with lights on at 07:00 a.m.). Food and water were available ad libitum. On gestational day 12.5, females received a single intraperitoneal injection of either sodium valproate (VPA) or saline (SAL). […] Newborn litters found up to 5.00 p.m. were considered to be born on that day (Postnatal day (PND) 0). On PND 1, the litters were culled to eight animals (six males and two females). On PND 21, the pups were weaned and housed in groups of three. […]
The apparatus comprised two open and two closed arms (501×10×40 h cm) that extended from a common central platform (101×10 w cm). […] Each session was recorded with a camera positioned above the apparatus for subsequent behavioral analysis performed using the Observer 3.0 software (Noldus Information Technology). The following parameters were analyzed: […]
Data are expressed as mean±SEM. To assess the effects of prenatal VPA exposure and psilocybin on behavioral parameters, data were analyzed by two-way ANOVA, with prenatal treatment and postnatal treatment as factors. […]

[1] = tested on: mice prenatally exposed to valproic acid; conditions: Mollinedo-Gajate et al.; cited from earlier work

Structure (SMILES): CN(C)CCc1c[nH]c2cccc(OP(=O)(O)O)c12 [psilocybin]
- MCP-1, effect of Dose (serum cytokine levels; F(2, 74)=2.448, p=0.093): near-significant effect of Dose
- Eotaxin, effect across Dose (serum cytokine levels; F(2, 74)=5.090, p=0.008): significant difference
- MCP-3, effect of dose (serum cytokine levels; F(2, 77)=2.597, p=0.08): near-significant effect of dose
- MCP-3, pairwise comparison KO/1 mg/kg v. KO/3 mg/kg (serum cytokine levels; KO rats, p=0.01): significant differences
- Eotaxin, pairwise comparison KO/1 mg/kg v. KO/3 mg/kg (serum cytokine levels; KO rats, p=0.019): significant differences
- MCP-3, pairwise comparison KO/veh v. KO/1 mg/kg (serum cytokine levels; KO rats, p=0.038): significant differences
- MCP-3, pairwise comparison wt/veh v. wt/3 mg/kg (serum cytokine levels; WT rats, p=0.001): significant differences
- MCP-1, pairwise comparison wt/veh v. wt/3 mg/kg (serum cytokine levels; WT rats, p=0.0072): significant differences
- Eotaxin, pairwise comparison wt/veh v. wt/3 mg/kg (serum cytokine levels; WT rats, p=0.033): significant differences
- MCP-1, pairwise comparison wt/1 mg/kg v. wt/3 mg/kg (serum cytokine levels; WT rats, p=0.0456): significant differences
- serum cytokine levels pre and post treatment (serum cytokine levels; fragile X syndrome KO rat and WT controls): significant changes in serum cytokine levels
- cognitive deficit (% discrimination index) (Fmr1-^Δexon 8 rats; Experiment 1: single dose 1 mg/kg i.p. eight days before testing, 1 mg/kg): mitigated this deficit; also recorded: mitigated (but not completely rescued) the cognitive deficits; also recorded: mitigated the cognitive deficit
- cognitive deficit (% discrimination index) (Fmr1-^Δexon 8 rats; Experiment 1: single dose 3 mg/kg i.p. eight days before testing, 3 mg/kg): mitigated this deficit; also recorded: mitigated the cognitive deficit
- cognitive deficit (% discrimination index) (Fmr1-^Δexon 8 rats; Experiment 2: 0.1 mg/kg i.p. three times every other day, testing five days after last administration, p<0.01 vs vehicle, 0.1 mg/kg): rescued; also recorded: fully rescue the cognitive impairment; also recorded: reverted the deficit in object recognition memory
- cognitive deficit (% discrimination index) (Fmr1-^Δexon 8 rats; Experiment 3: 0.1 mg/kg p.o. three times every other day for two weeks, testing five days after last administration, p<0.001 vs vehicle, 0.1 mg/kg): restored the cognitive impairments; also recorded: fully reverted the deficit in object recognition memory
- cognitive deficit (% discrimination index) (Fmr1-^Δexon 8 rats; Experiment 3: 0.3 mg/kg p.o. three times every other day for two weeks, testing five days after last administration, p<0.001 vs vehicle, 0.3 mg/kg): restored the cognitive impairments; also recorded: fully reverted the deficit in object recognition memory
- cognitive impairment of Fmr1 KO juvenile rats (Fmr1-^Δexon 8 rats; repeated microdoses (schedule not given at the place)): reverted the cognitive impairment
- antidepressant effect (Wistar rats): antidepressant effect
- anxiety-like behavior (% time in open arms, % open arm entries) (VPA-exposed rats): improves anxiety-like behaviors
- anxiety-like behavior (% time in open arms, % open arm entries) (VPA-exposed rats; listed as Psilocybin): reversed the anxiety-like behavior
- social alterations [1]: rescues the social alterations
